Values from PubChem BioAssay AID652272 (Drosophila RNAi Screening Center, 2013)
Purpose: 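Genome-wide knock-down search for components of Hedgehog signalling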 (primary screen). System: Drosophila clone 8 (Cl8) cells. Reagents: long dsRNA against Drosophila genes. Detection: 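Firefly light from a Hedgehog-responsive ptc promoter reporter and Renilla reference light, both read on a plate reader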. Reading the numbers: firefly Hh reporter signal: higher = more ptc reporter light; Renilla reference signal: higher = more Renilla control light. Hit rule: 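Called a hit if the two-replicate mean z-score lies below -2 or above +3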. Meaning of the calls: active = hit: reporter lowered or raised; inactive = not a hit.
In all, the deposit lists about 21,000 reagents; this is a random part of those that have a named target and a result. In the full data, 503 (2.4%) got an active call. 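Raw plate light values, not normalised; calls rest on replicate z-scores that were not deposited; hits include reporter decreases as well as increases.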 Entries without a mark were called inactive. Not given: the amount of reagent, the time to read-out.

Which result is listed for Pburs [DRSC02483]?
firefly Hh reporter signal, replicate 1: 1.17e5; firefly Hh reporter signal, replicate 2: 48332; Renilla reference signal, replicate 1: 3152; Renilla reference signal, replicate 2: 4845

What is on record for Nf1 [DRSC16758]?
firefly Hh reporter signal, replicate 1: 98233; firefly Hh reporter signal, replicate 2: 77779; Renilla reference signal, replicate 1: 2277; Renilla reference signal, replicate 2: 2119

With lin-28 [DRSC10261], what was measured?
firefly Hh reporter signal, replicate 1: 59433; firefly Hh reporter signal, replicate 2: 59979; Renilla reference signal, replicate 1: 1180; Renilla reference signal, replicate 2: 4609

For inaD [DRSC04694], what was measured?
firefly Hh reporter signal, replicate 1: 1.05e5; firefly Hh reporter signal, replicate 2: 1.02e5; Renilla reference signal, replicate 1: 2440; Renilla reference signal, replicate 2: 7962

For CG4066 [DRSC15541], how do the results read?
firefly Hh reporter signal, replicate 1: 93850; firefly Hh reporter signal, replicate 2: 1.01e5; Renilla reference signal, replicate 1: 3257; Renilla reference signal, replicate 2: 2802

With CG8197 [DRSC07105], what was measured?
firefly Hh reporter signal, replicate 1: 93415; firefly Hh reporter signal, replicate 2: 42776; Renilla reference signal, replicate 1: 1995; Renilla reference signal, replicate 2: 3945

For Cpr67Fa1 [DRSC10932], how do the results read?
firefly Hh reporter signal, replicate 1: 64770; firefly Hh reporter signal, replicate 2: 64691; firefly Hh reporter signal, replicate 3: 58262; Renilla reference signal, replicate 1: 7169; Renilla reference signal, replicate 2: 4960

What did the screen give for CG4440 [DRSC02747]?
firefly Hh reporter signal, replicate 1: 1.18e5; firefly Hh reporter signal, replicate 2: 45841; Renilla reference signal, replicate 1: 3366; Renilla reference signal, replicate 2: 4052

How did the screen score Cyp4ad1 [DRSC07369]?
firefly Hh reporter signal, replicate 1: 1.04e5; firefly Hh reporter signal, replicate 2: 64068; Renilla reference signal, replicate 1: 4244; Renilla reference signal, replicate 2: 2743

How did the screen score CG11588 [DRSC09145]?
firefly Hh reporter signal, replicate 1: 1.33e5; firefly Hh reporter signal, replicate 2: 2.57e5; Renilla reference signal, replicate 1: 13641; Renilla reference signal, replicate 2: 9529

Which result is listed for CG11588 [DRSC09846]?
firefly Hh reporter signal, replicate 1: 72946; firefly Hh reporter signal, replicate 2: 65648; firefly Hh reporter signal, replicate 3: 47644; Renilla reference signal, replicate 1: 6169; Renilla reference signal, replicate 2: 3014

How did the screen score spn-E [DRSC17064]?
firefly Hh reporter signal, replicate 1: 79414; firefly Hh reporter signal, replicate 2: 85792; Renilla reference signal, replicate 1: 1540; Renilla reference signal, replicate 2: 2483

Which result is listed for CG6345 [DRSC16024]?
firefly Hh reporter signal, replicate 1: 1.16e5; firefly Hh reporter signal, replicate 2: 1.19e5; Renilla reference signal, replicate 1: 4698; Renilla reference signal, replicate 2: 3404

For CG14937 [DRSC02419], how do the results read?
firefly Hh reporter signal, replicate 1: 1.06e5; firefly Hh reporter signal, replicate 2: 47928; Renilla reference signal, replicate 1: 2668; Renilla reference signal, replicate 2: 3542

With pad [DRSC14227], how do the results read?
firefly Hh reporter signal, replicate 1: 1.07e5; firefly Hh reporter signal, replicate 2: 95116; Renilla reference signal, replicate 1: 2520; Renilla reference signal, replicate 2: 2955

What is on record for Mal-A8 [DRSC07234]?
firefly Hh reporter signal, replicate 1: 90651; firefly Hh reporter signal, replicate 2: 46019; Renilla reference signal, replicate 1: 1715; Renilla reference signal, replicate 2: 3644

For tHMG1 [DRSC16181], what was measured?
firefly Hh reporter signal, replicate 1: 8.35e5; firefly Hh reporter signal, replicate 2: 1.46e5; Renilla reference signal, replicate 1: 52739; Renilla reference signal, replicate 2: 395

For Chi [DRSC04602], what was measured?
firefly Hh reporter signal, replicate 1: 1.06e5; firefly Hh reporter signal, replicate 2: 72480; Renilla reference signal, replicate 1: 4184; Renilla reference signal, replicate 2: 3180

For dpr8 [DRSC19406], what was measured?
firefly Hh reporter signal, replicate 1: 58696; firefly Hh reporter signal, replicate 2: 1.81e5; Renilla reference signal, replicate 1: 2281; Renilla reference signal, replicate 2: 8232

What is on record for dpr8 [DRSC19600]?
firefly Hh reporter signal, replicate 1: 79575; firefly Hh reporter signal, replicate 2: 1.34e5; Renilla reference signal, replicate 1: 2253; Renilla reference signal, replicate 2: 6064

How did the screen score dpr8 [DRSC19938]?
firefly Hh reporter signal, replicate 1: 92536; firefly Hh reporter signal, replicate 2: 1.82e5; Renilla reference signal, replicate 1: 2482; Renilla reference signal, replicate 2: 7443

Which result is listed for dpr8 [DRSC19939]?
firefly Hh reporter signal, replicate 1: 88407; firefly Hh reporter signal, replicate 2: 1.87e5; Renilla reference signal, replicate 1: 2816; Renilla reference signal, replicate 2: 8663
